This note sets out measurements from publication PMC7317027.

For assay [1], the target named is T1, Inhibitor of differentiation 2 (Id2) (rat (endogenous in NRK-52E)) (UniProt P41137).
T1 sequence: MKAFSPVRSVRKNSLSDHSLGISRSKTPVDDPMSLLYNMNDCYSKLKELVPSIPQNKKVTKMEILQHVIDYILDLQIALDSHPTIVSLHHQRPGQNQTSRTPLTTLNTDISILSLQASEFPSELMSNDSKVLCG
Kind of assay: co-IP; Dynabeads Protein G with rabbit anti-Id2 or mouse anti-Twist antibody, NRK-52E cell lysate supernatant, room temperature 1 h, Western blot; cells cultured in normal glucose (5.5 mmol/L) or high glucose (30 mmol/L), with or without 0.1 mg/mL oxymatrine. A general note: A western blot detects proteins with antibodies after separation by electrophoresis.

For assay [2], the target named is Twist (rat (endogenous in NRK-52E)). Described as above.

These are yes or no findings as the source states them, for the method shown. Binding seen in cells or lysates may run through a third protein. A result given as binding can be weak or reduced; the word gives no strength.

Twist (rat (endogenous in NRK-52E)): in assay [1], the binding result is given as “binds”.

B1: Inhibitor of differentiation 2 (Id2) (protein, UniProt P41137 1-134)
chain: T1 sequence
Turning to B1, in assay [2], the binding result is reported as “binds”.
